The chains are these.
B1: pyrroline-5-carboxylate synthase (P5CS) (enzyme, UniProt P54886 1-795)
chain: MLSQVYRCGFQPFNQHLLPWVKCTTVFRSHCIQPSVIRHVRSWSNIPFITVPLSRTHGKSFAHRSELKHAKRIVVKLGSAVVTRGDECGLALGRLASIVEQVSVLQNQGREMMLVTSGAVAFGKQRLRHEILLSQSVRQALHSGQNQLKEMAIPVLEARACAAAGQSGLMALYEAMFTQYSICAAQILVTNLDFHDEQKRRNLNGTLHELLRMNIVPIVNTNDAVVPPAEPNSDLQGVNVISVKDNDSLAARLAVEMKTDLLIVLSDVEGLFDSPPGSDDAKLIDIFYPGDQQSVTFGTKSRVGMGGMEAKVKAALWALQGGTSVVIANGTHPKVSGHVITDIVEGKKVGTFFSEVKPAGPTVEQQGEMARSGGRMLATLEPEQRAEIIHHLADLLTDQRDEILLANKKDLEEAEGRLAAPLLKRLSLSTSKLNSLAIGLRQIAASSQDSVGRVLRRTRIAKNLELEQVTVPIGVLLVIFESRPDCLPQVAALAIASGNGLLLKGGKEAAHSNRILHLLTQEALSIHGVKEAVQLVNTREEVEDLCRLDKMIDLIIPRGSSQLVRDIQKAAKGIPVMGHSEGICHMYVDSEASVDKVTRLVRDSKCEYPAACNALETLLIHRDLLRTPLFDQIIDMLRVEQVKIHAGPKFASYLTFSPSEVKSLRTEYGDLELCIEVVDNVQDAIDHIHKYGSSHTDVIVTEDENTAEFFLQHVDSACVFWNASTRFSDGYRFGLGAEVGISTSRIHARGPVGLEGLLTTKWLLRGKDHVVSDFSEHGSLKYLHENLPIPQRNTN
B2: PYCRL (enzyme, UniProt Q53H96 1-274)
chain: MAAAEPSPRRVGFVGAGRMAGAIAQGLIRAGKVEAQHILASAPTDRNLCHFQALGCRTTHSNQEVLQSCLLVIFATKPHVLPAVLAEVAPVVTTEHILVSVAAGVSLSTLEELLPPNTRVLRVLPNLPCVVQEGAIVMARGRHVGSSETKLLQHLLEACGRCEEVPEAYVDIHTGLSGSGVAFVCAFSEALAEGAVKMGMPSSLAHRIAAQTLLGTAKMLLHEGQHPAQLRSDVCTPGGTTIYGLHALEQGGLRAATMSAVEAATCRAKELSRK
B3: PYCR2 (enzyme, UniProt Q96C36 1-320)
chain: MSVGFIGAGQLAYALARGFTAAGILSAHKIIASSPEMNLPTVSALRKMGVNLTRSNKETVKHSDVLFLAVKPHIIPFILDEIGADVQARHIVVSCAAGVTISSVEKKLMAFQPAPKVIRCMTNTPVVVQEGATVYATGTHALVEDGQLLEQLMSSVGFCTEVEEDLIDAVTGLSGSGPAYAFMALDALADGGVKMGLPRRLAIQLGAQALLGAAKMLLDSEQHPCQLKDNVCSPGGATIHALHFLESGGFRSLLINAVEASCIRTRELQSMADQEKISPAALKKTLLDRVKLESPTVSTLTPSSPGKLLTRSLALGGKKD

Chains of the proteins cited; added tags and fusions are not shown.
UniProt Q96AC1: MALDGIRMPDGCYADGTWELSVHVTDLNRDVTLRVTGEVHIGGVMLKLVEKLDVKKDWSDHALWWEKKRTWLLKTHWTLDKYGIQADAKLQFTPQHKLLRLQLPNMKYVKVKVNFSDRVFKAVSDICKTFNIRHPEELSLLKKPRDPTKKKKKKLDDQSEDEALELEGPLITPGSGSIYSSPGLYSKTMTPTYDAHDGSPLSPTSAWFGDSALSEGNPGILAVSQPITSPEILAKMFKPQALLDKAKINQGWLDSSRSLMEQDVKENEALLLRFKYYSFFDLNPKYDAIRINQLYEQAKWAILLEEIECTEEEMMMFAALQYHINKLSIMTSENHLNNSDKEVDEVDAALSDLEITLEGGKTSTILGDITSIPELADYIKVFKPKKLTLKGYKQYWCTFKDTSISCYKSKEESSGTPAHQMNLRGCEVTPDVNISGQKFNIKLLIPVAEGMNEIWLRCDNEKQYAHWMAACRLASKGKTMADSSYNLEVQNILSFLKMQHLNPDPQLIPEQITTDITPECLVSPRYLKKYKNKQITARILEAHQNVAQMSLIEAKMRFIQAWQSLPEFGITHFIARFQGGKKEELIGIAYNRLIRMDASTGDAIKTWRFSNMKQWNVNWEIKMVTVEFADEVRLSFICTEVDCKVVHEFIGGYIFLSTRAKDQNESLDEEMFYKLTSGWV

No constants are given. Whether binding was seen depends on the method and setting. In cells and extracts the contact can be indirect. These calls come from enrichment with a bait or labelling near it, and not all partners need be listed. A no says only that the protein was not detected with the bait.

The target of this test is kindlin-2 (human (endogenous in A549)) (UniProt Q96AC1). Description: affinity purification with mass spectrometry; A549 cell lysates immunoprecipitated with mouse anti-kindlin-2 antibody (clone 3A3.5) or control mouse IgG; SDS-PAGE, in-gel trypsin digestion, nano LC-MS/MS.
As to B1, the binding entry was “no binding”.
Regarding B2, the binding entry is recorded as “no binding”.
In the case of B3, the binding result is recorded as “binds”.

The values above are taken from article PMC6381112.
